Measurements taken from patent publication US20240190943A1 (HANGZHOU EXEGENESIS BIO, published 2024).
Results are given in words; binding and its absence hold for the method and conditions named. Some binding calls cover weakened binding; strength is not graded here. Where a sequence is shown, tags or fusion partners need not be part of it.

The chains behind the UniProt entries cited, without tags or fusion partners. Where a name states a change or a piece, a line headed by the entry shows the natural chain unless it says otherwise. A line that says so, or that is headed by a name, gives the form on record, which may keep a tag or linker.
VEGF-A (P15692-4, form named): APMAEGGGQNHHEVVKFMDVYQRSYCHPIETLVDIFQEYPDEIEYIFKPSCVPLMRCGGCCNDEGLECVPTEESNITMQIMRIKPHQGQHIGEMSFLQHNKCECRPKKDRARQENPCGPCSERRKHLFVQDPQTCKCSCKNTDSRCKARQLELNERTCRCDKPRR

Legend:
[1] = target: T1, VEGF-A (UniProt P15692-4 27-191, limits assumed); assay: rVEGF ELISA, shown relative to Exg102-04; left bar of each group
T1 construct: also called rVEGF; vascular endothelial growth factor

[2] = target: T1, VEGF-A; assay: ELISA, protein affinity purified from lysate of transfected HEK293T cells
[3] = target: T1, VEGF-A; assay: rVEGF ELISA with equal conditioned medium from transient transfection
[4] = target: T1, VEGF-A; assay: VEGF-A binding ELISA (OD450), titration in pM of the product of plasmid-transfected cells
[5] = target: T1, VEGF-A; assay: ELISA on VEGF-A, protein affinity-purified from transfected HEK293T cells; axis 'VEGF-A (19nM) Affinity OD450'

Measured: binding

B1: Exg102-13 (other)
fusion polypeptide (Flt1 signal - VEGFR1 D2 - VEGFR2 D3 - Fc-Hinge - Ang BD): SDTGRPFVEMYSEIPEIIHMTEGRELVIPCRVTSPNITVTLKKFPLDTLIPDGKRIIWDSRKGFIISNATYKEIGLLTCEATVNGHLYKTNYLTHRQTNTIIDVVLSPSHGIELSVGEKLVLNCTARTELNVGIDFNWEYPSSKHQHKKLVNRDLKTQSGSEMKKFLSTLTIDGVTRSDQGLYTCAASSGLMTKKNSTFVRVHEKDKTHTCPPCPAPELLGGPSVGGGGGSGGGGGAQQEECEWDPWTCEHMGSGSATGGSGSTASSGSGSATHQEECEWDPWTCEHMLE
notes: Carries only the N-terminal 21 amino acids of the Fc (Fc-Hinger) and no full Fc; also called Exemplary polypeptide 4
binds: [1]

B2: control polypeptide without an Ang BD (Fc fusion)
chain: SDTGRPFVEMYSEIPEIIHMTEGRELVIPCRVTSPNITVTLKKFPLDTLIPDGKRIIWDSRKGFIISNATYKEIGLLTCEATVNGHLYKTNYLTHRQTNTIIDVVLSPSHGIELSVGEKLVLNCTARTELNVGIDFNWEYPSSKHQHKKLVNRDLKTQSGSEMKKFLSTLTIDGVTRSDQGLYTCAASSGLMTKKNSTFVRVHE
notes: Signal peptide left out; also called EXG102-02; EXG102-03-1; not shown: Fc fragment of human IgG
binds: [2] | [1] | [3] | [4] | [5]
